This is an account of results in paper PMC3751566.

This assay has as its target T1, Protein-tyrosine phosphatase 1B substrate-trapping mutant D181A (UniProt P18031).
T1 sequence: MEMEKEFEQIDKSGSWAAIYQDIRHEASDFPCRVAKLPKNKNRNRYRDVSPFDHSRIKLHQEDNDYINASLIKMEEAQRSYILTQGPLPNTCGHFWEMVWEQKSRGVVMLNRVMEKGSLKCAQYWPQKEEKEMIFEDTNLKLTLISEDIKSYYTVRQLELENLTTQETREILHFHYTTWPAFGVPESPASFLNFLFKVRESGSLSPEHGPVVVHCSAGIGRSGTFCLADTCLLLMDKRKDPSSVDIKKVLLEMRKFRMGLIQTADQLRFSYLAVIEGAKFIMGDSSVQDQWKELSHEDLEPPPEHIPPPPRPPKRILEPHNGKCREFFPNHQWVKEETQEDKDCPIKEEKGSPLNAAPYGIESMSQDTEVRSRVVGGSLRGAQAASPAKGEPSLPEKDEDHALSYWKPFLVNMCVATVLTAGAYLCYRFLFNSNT
The assay can be described thus: affinity purification with mass spectrometry; substrate trapping with the PTP1B D/A mutant in adipocytes and mass spectrometry; methods not given here (ref. 30).

No constants are given. Whether binding was seen depends on the method and setting. In cells and extracts the contact can be indirect. Here binding means that the protein was enriched with, or labelled near, the bait; the list need not be complete.

B1: Munc18c (endogenous) (protein, UniProt Q60770 1-592)
chain: MAPPVSERGLKSVVWRKIKTAVFDDCRKEGEWKIMLLDEFTTKLLSSCCKMTDLLEEGITVIENIYKNREPVRQMKALYFISPTPKSVDCFLRDFGSKSEKKYKAAYIYFTDFCPDSLFNKIKASCSKSIRRCKEINISFIPQESQVYTLDVPDAFYYCYSPDPSNASRKEVVMEAMAEQIVTVCATLDENPGVRYKSKPLDNASKLAQLVEKKLEDYYKIDEKGLIKGKTQSQLLIIDRGFDPVSTVLHELTFQAMAYDLLPIENDTYKYKTDGKEKEAVLEEDDDLWVRVRHRHIAVVLEEIPKLMKEISSTKKATEGKTSLSALTQLMKKMPHFRKQISKQVVHLNLAEDCMNKFKLNIEKLCKTEQDLALGTDAEGQRVKDSMLVLLPVLLNKNHDNCDKIRAVLLYIFGINGTTEENLDRLIHNVKIEDDSDMIRNWSHLGVPIVPPSQQAKPLRKDRSAEETFQLSRWTPFIKDIMEDAIDNRLDSKEWPYCSRCPAVWNGSGAVSARQKPRTNYLELDRKNGSRLIIFVIGGITYSEMRCAYEVSQAHKSCEVIIGSTHILTPRKLLDDIKMLNKSKDKVSFKDE
For the molecule B1, the binding result is “binds”.
